In PMC8541823:

Molecular target: CG31030-V5 (Drosophila melanogaster (endogenous in fly heads))
Experiment: affinity purification with mass spectrometry; anti-V5-tag mAb magnetic beads on lysates of ~200 heads of CG31030^V5 flies against w^1118 control; 50 mM Tris-HCl pH 7.4, 2 mM EDTA, 150 mM NaCl, 0.5% IGEPAL CA-630, 10% glycerol; 4 h at 4°C; on-bead trypsin digest, nano LC-MS/MS, label-free quantification; three independent experiments, hits at least 2-fold over control in all three

B1: ATP6AP2 (protein, UniProt Q9VHG4 18-320)
chain: SGEFTVLNRPKAISFKGNDALESHYVGDVLYASMGNAVSGDTNWNGLTINDPFNLAKGVILVHVQGIGHVTTAGNVKTYELTGSGTDASLNALAAELEAANEPVCDINFEQFDDGVQAWKSCFGDFEAPAAKPTKHLNPSLHTADKQFLQEVGFINSAADHLAEMAKPSNVLMLRVSVDGVAKAHGEKSVAVEEANKLLSAAISRLLAASQKSSDSVLFVQTTEKDVAASRAKRDTIAASTTNPYNLAVYYGSDYPVIFNIILWFMVVFGLSLLAICYAIAAMDPGRDSIIYRMTSTRIKKDN
binding: binds

Results are given in words; binding and its absence hold for the method and conditions named. In cells and extracts the contact can be indirect. A yes stands for co-enrichment or nearness to the bait. Other partners may have been found.
